Data source: PubChem BioAssay AID1159578 (Peter MacCallum Cancer Centre, 2015)

- Test: 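Knock-downs that alter how fast lymphatic endothelial cells migrate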 (primary screen)
- Cells: human lymphatic endothelial cells
- Reagent: siRNA pool against human genes, 40 nM
- Time to read-out: 48 h after transfection
- Measured: 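Cells stained with dye and imaged after a scratch; covered wound area and nuclei counted, duplicates averaged, migration set against mock wells and turned into a robust z-score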
- Direction: migration robust z-score: higher = faster migration into the scratch; nuclei per well: higher = more cells in the well
- Active means: 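Migration changed when robust z exceeds 2 or falls below -2 and mean nuclei number is at least 3300; otherwise not called changed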
- Calls: active = migration changed; inactive = no migration change, or too few cells
Shown is an unselected part of about 18,000 reagents. About 1,030 of them (5.7%) were called active. 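Inactive calls also include pools with fewer than 3300 nuclei, whose migration was not assessed.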 Raw values are not corrected between plates. Reagents against one gene are numbered here. Not all columns of the deposit are shown.

What is on record for H4C9?
migration robust z-score: -1.38; nuclei per well, duplicate mean: 5232; activity call: inactive

With XAGE1B, what was measured?
migration robust z-score: 0.8; nuclei per well, duplicate mean: 6460; activity call: inactive

With ARFGEF2, what does the deposit list?
migration robust z-score: 0.6; nuclei per well, duplicate mean: 5872; activity call: inactive

Which result is listed for CLEC18C?
migration robust z-score: -1.25; nuclei per well, duplicate mean: 6328; activity call: inactive

For ZNF557, what does the deposit list?
migration robust z-score: 0.98; nuclei per well, duplicate mean: 5703; activity call: inactive

What did the screen give for TRIO?
migration robust z-score: 0.94; nuclei per well, duplicate mean: 5309; activity call: inactive

What did the screen give for GFRA4?
migration robust z-score: -0.8; nuclei per well, duplicate mean: 4286; activity call: inactive

Which result is listed for GDAP1?
migration robust z-score: 1.33; nuclei per well, duplicate mean: 6380; activity call: inactive

For BPY2C, what does the deposit list?
migration robust z-score: -0.88; nuclei per well, duplicate mean: 5350; activity call: inactive

With RNMT, what was measured?
migration robust z-score: 1.79; nuclei per well, duplicate mean: 5269; activity call: inactive

With YWHAG, what was measured?
migration robust z-score: -2.54; nuclei per well, duplicate mean: 3591; activity call: active

What is on record for TMEM130?
migration robust z-score: -1.43; nuclei per well, duplicate mean: 6096; activity call: inactive

For TRPV6, what was measured?
migration robust z-score: -0.9; nuclei per well, duplicate mean: 5928; activity call: inactive

How did the screen score CISD1?
migration robust z-score: -0.18; nuclei per well, duplicate mean: 6620; activity call: inactive

With RNF186, what was measured?
migration robust z-score: 0.42; nuclei per well, duplicate mean: 4544; activity call: inactive

With SBDS, what does the deposit list?
migration robust z-score: 0.15; nuclei per well, duplicate mean: 5832; activity call: inactive

Which result is listed for SELP?
migration robust z-score: -1.84; nuclei per well, duplicate mean: 5996; activity call: inactive

How did the screen score CYRIB?
migration robust z-score: 0.04; nuclei per well, duplicate mean: 4999; activity call: inactive

Which result is listed for MYLK3?
migration robust z-score: 0.03; nuclei per well, duplicate mean: 5708; activity call: inactive

With PTPN20 #1, what does the deposit list?
migration robust z-score: 0.68; nuclei per well, duplicate mean: 4429; activity call: inactive

With PTPN20 #2, what does the deposit list?
migration robust z-score: 0.34; nuclei per well, duplicate mean: 4152; activity call: inactive
